Consider 23 compounds from ChEMBL document CHEMBL4513141, “CO-ADD screening of NIH (USA) - Clinical Collection” (2021).

SMILES strings stand for the structures. The list shows a part of the results. Potency and affinity values are given separately.

This assay has as its system Acinetobacter baumannii. As to conditions: Concentration 20 uM; ASSAY_TEST Inhibition of Bacterial Growth; detection method Absorption (OD600); MEDIA CAMHB; plate type 384well; NBS; CORNING #3640; time 18 hr.
Compound `CCN(CC)CC1CCCCN1CC(=O)N1c2ccccc2C(=O)Nc2cccnc21` (stereo not drawn) [OTENZEPAD] returned an Inhibition of 12.92%.

`Cc1ccc(O)c([C@H](CCN(C(C)C)C(C)C)c2ccccc2)c1.O=C(O)C(O)C(O)C(=O)O` [TOLTERODINE TARTRATE] returned an Inhibition of 12.65%.

Take `C[C@@H]1O[C@@H](OC[C@H]2O[C@@H](Oc3c(-c4ccc(O)c(O)c4)oc4cc(O)cc(O)c4c3=O)[C@H](O)[C@@H](O)[C@@H]2O)[C@H](O)[C@H](O)[C@H]1O` [RUTIN]: the Inhibition came to 25.94%.

For the compound `O=c1c(-c2ccccc2)c1-c1ccccc1` [DIPHENCYPRONE], the Inhibition is 5.75%.

`CC(C)(C)NC(=O)[C@@H]1CN(Cc2cccnc2)CCN1C[C@@H](O)C[C@@H](Cc1ccccc1)C(=O)N[C@H]1c2ccccc2C[C@H]1O.O=S(=O)(O)O` [INDINAVIR SULFATE] displayed an Inhibition of 3.63%.

In the case of `CC(C)(C)NCC(O)c1ccc(O)c(CO)c1.CC(C)(C)NCC(O)c1ccc(O)c(CO)c1.O=S(=O)(O)O` (stereo not drawn) [ALBUTEROL SULFATE], the Inhibition was 22.62%.

Consider `Nc1nnc(-c2cccc(Cl)c2Cl)c(N)n1` [LAMOTRIGINE], for which the Inhibition is listed as 21.58%.

As for `CN1CCCC(n2nc(Cc3ccc(Cl)cc3)c3ccccc3c2=O)CC1.Cl` (stereo not drawn) [AZELASTINE HYDROCHLORIDE], the Inhibition is listed as 10.8%.

Turning to `CCCNC(C)C(=O)Nc1ccccc1C.Cl` (stereo not drawn) [PRILOCAINE HYDROCHLORIDE], the Inhibition was determined as 17.21%.

Regarding `CC(=O)NCCCCCCNC(C)=O` [HEXAMETHYLENEBISACETAMIDE], the Inhibition came out at 11.13%.

`Cc1nccn1CC1CCc2c(c3ccccc3n2C)C1=O` (stereo not drawn) [ONDANSETRON] registered an Inhibition of 10.7%.

Compound `C[C@]12CCC(=O)C=C1CC[C@@H]1[C@@H]2[C@@H](O)C[C@@]2(C)[C@H]1CC[C@]2(O)C(=O)COC(=O)CCC(=O)O` [HYDROCORTISONE HEMISUCCINATE ANHYDROUS] came in with an Inhibition of 6.01%.

Take `CC(C)(C)NCC(O)COc1cccc2c1CC(O)C(O)C2` (stereo not drawn) [NADOLOL]: the Inhibition is listed as 24.15%.

On to `NC(=O)N1c2ccccc2CC(=O)c2ccccc21` [OXCARBAZEPINE], for which the Inhibition is reported as 6.53%.

Compound `Nc1ncnc2c1ncn2[C@@H]1O[C@H](CO)C[C@@H]1O.O` registered an Inhibition of 15.93%.

The compound `Cc1cccc(Nc2ccncc2S(=O)(=O)NC(=O)NC(C)C)c1` [TORSEMIDE] displayed an Inhibition of 11.62%.

`CNCC[C@@H](Oc1ccccc1C)c1ccccc1.Cl` [ATOMOXETINE HYDROCHLORIDE]: the Inhibition is reported as 8.13%.

The compound `COCCOC(=O)C1=C(C)NC(C)=C(C(=O)OC(C)C)C1c1cccc([N+](=O)[O-])c1` (stereo not drawn) [NIMODIPINE] gave an Inhibition of 9.05%.

For the compound `NCC(=O)CCC(=O)O` [AMINOLEVULINIC ACID], the Inhibition is 27.7%.

Regarding `Cc1ccc(C)c(OCCCC(C)(C)C(=O)O)c1` [GEMFIBROZIL], the Inhibition came to 19.84%.

On to `CC(=O)O[C@H]1C[C@@H]2CC[C@@H]3[C@H](CC[C@@]4(C)[C@H]3C[C@H]([N+]3(C)CCCCC3)[C@@H]4OC(C)=O)[C@@]2(C)C[C@@H]1N1CCCCC1.[Br-]` [VECURONIUM BROMIDE], for which the Inhibition was determined as 11.14%.

With `NS(=O)(=O)Cc1noc2ccccc12` [ZONISAMIDE], the Inhibition was determined as 10.49%.

In turn, `Cc1ccccc1C(OCCN(C)C)c1ccccc1.Cl` (stereo not drawn) [ORPHENADRINE HYDROCHLORIDE] showed an Inhibition of 22.26%.

In general, Inhibition refers to the relative decrease from the control value, in per cent.
